# Laboratory results from PubChem BioAssay AID1347423 (Functional Genomics Laboratory (NCATS/FGL), 2020).
# In all, about 52,000 sequences went through this assay and about 210 (0.4%) were called active.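 Rule for the calls: active = gene whose silencing raises cell survival under the drug, median off-target-corrected z-score across its silencing RNAs 2 or more; inactive = the rest.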 This is one part of the list.
# Assay: Resistance to Poly (ADP-Ribose) Polymerase inhibitor: Gene Identification via Genome-wide siRNA Screen
# Settings: mouse BRCA2 R2336H ES cells, olaparib, CellTiter-Glo viability; stronger effect = higher value
# Summary of the method: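 Genome-wide siRNA screen (3 siRNAs/gene, 20 nM) in mouse ES cells carrying hypomorphic BRCA2 R2336H; olaparib 500 nM added 48 h post-transfection, CellTiter-Glo viability 72 h later. Normalized to plate-median negative control; MAD z-scores, gene median, seed-adjusted.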
row,Sequence,z-score
1,GGCACUUUUUGUUUUCAUGTT against Nckap1,inactive: -0.724
2,CCUGAUUGUCACUCCUUUUTT against Pde4b,inactive: -0.239
3,CGUUUGCUUUUCAUCGUGGTT against Olfr154,inactive: 1.56
4,GCAGGCUACCUCUAAUCCATT against Slc23a3,inactive: -0.866
5,GGAGGAGAUAAAAUUUAACTT against Cdv1,inactive: 0.488
6,GGCGGACAGUUCUUUGCAATT against A630029G22Rik,inactive: -0.194
7,GGUUUUAUUAACUCUGUGATT against Olfr1013,inactive: -0.0811
8,UAUGCUGGCAGGGACACCUTT against Scarf1,inactive: -0.366
9,GCAUAGAUUCUCGAGUUUATT against Sugt1,inactive: 0.676
10,GGAGGUCCAAGUAGCUCUUTT against Olfr5,inactive: -0.488
11,GGAAAUUUCAGUCGUAGUATT against 9130411I17Rik,inactive: 0.0964
12,GGUCUUCAAGGCACAUAAGTT against Btbd4,inactive: -0.643
13,GCUGACUUCGGAGAUUAUATT against Ptpn14,inactive: -0.14
14,CCUCUGUUUGCACUUAUUATT against Gabrr1,inactive: -0.402
15,GGUUAUCGCCCAAUGACGGTT against Dmrt2,inactive: 0.179
16,GGUAUUUCCACUGUCCAGCTT against 2900075G08Rik,inactive: 0.824
17,GGACAAUUUAACCAUCGUGTT against Tm4sf9,inactive: 0.348
18,GCUAAUCCCAUCUCGUCCUTT against 3110009E18Rik,inactive: 0.972
19,GGUGUCCUCCUUUCAGUUUTT against Tas2r114,inactive: -1.05
20,GGCAAAGCUAAAGGCCAAATT against Ensa,inactive: -0.494
21,GGAAAAUGAUGGAGAGGAATT against 2610022K04Rik,inactive: 0.374
22,GCGAGUACUUUCCGCUGUUTT against Ltc4s,inactive: 0.215
23,GGAAUUUGUCCAGAGUCACTT against Treh,inactive: 0.581
24,CCAGACCACUUCCCAUUCUTT against Aqr,inactive: -2.15
25,GGCCUAGCAAUUCUUGAGCTT against C630025C03,inactive: -0.00738
26,CGAUUUAGUGGAACAAAUGTT against Nln,inactive: -0.624

# Single values from above:
# For z-score, GGCACUUUUUGUUUUCAUGTT against Nckap1 reads inactive: -0.724
# For z-score, CCUGAUUGUCACUCCUUUUTT against Pde4b reads inactive: -0.239

# Remaining list, next part.

row,Sequence,z-score
1,GGAACGACCAAAAGUGACGTT against Emcn,inactive: -1.06
2,GGUCCAAAGAAAGACCCAUTT against 1700009B20Rik,inactive: -0.191
3,CCCAUCUGAUUGUGCACAUTT against 2310061F22Rik,inactive: -0.485
4,GGUGACAAACCGAUACUUGTT against Cope,inactive: -0.601
5,GCUAUGACUUCAACGACUATT against Pcsk4,inactive: 1.22
6,GGAAGAAUGGGCUUUCUAGTT against Pask,inactive: 0.69
7,GGCUUGUCAGAAUUCUUCUTT against 4921528I01Rik,inactive: 1.27
8,GCUUUAAUGUUGACCUAGUTT against Lgals8,inactive: -0.889
9,CCUUUUGAUGUUGUGACUUTT against B230205M03,inactive: -1.47
10,GAGACUCUAUUUGAGGAUUTT against Kb14,inactive: 0.851
11,CCUCAAGGCUCAUAAAACATT against Zfp598,inactive: 1.02
12,GCACAAAAAAGUGAUAUUGTT against Hdlbp,inactive: -0.853
13,CUCUGGUUCCUAUUAGUAGTT against V1rd21,inactive: -1.31
14,GCAACUGGACAUUUAACAATT against Epgn,inactive: 0.218
15,GCUCUAUAGGCGAGCAUAGTT against BC049711,inactive: -0.275
16,GCAAGCUCAAAGCUUACGATT against Kcnv2,inactive: 1.19
17,GGUCCUGUGCUCUACUUUGTT against Gng10,inactive: -1.52
18,GGAAAUCGGCAAUCUGAAGTT against Lrrc1,inactive: -0.495
19,CGAUCUACAUCGAAUAAAUTT against 2610304F09Rik,inactive: -1.08
20,GGACACUGGGCUUAGCACUTT against Krt1-1,inactive: 1.76
21,GGAAGAAUUGGGUGUAGUGTT against L1cam,inactive: 1.45
22,GGGAUUAGAGACUGUCAUUTT against Nudt9,inactive: -0.936
23,GCCCAACUAAGCAAUAAUATT against AU021034,inactive: 0.416
24,GCCCUUCAGUAUUGACCUGTT against 3010001K23Rik,inactive: -0.261
25,GGAAGAGGCUAUUGCAUCGTT against Atrnl,inactive: 0.238
26,CCUUAGACCCAAUAACUUUTT against Nrxn1,inactive: 1.36

row,Sequence,z-score
1,GGACGAUGAGAGCAAUGACTT against Klk11,inactive: -1.22
2,GGCUCUCUUCGGGAAUACUTT against 2510006D16Rik,inactive: 0.0164
3,GGGAAUGCAAUGGUUUGUGTT against Ocm,inactive: -0.113
4,CCUUAUCUUAAUGAUCUCCTT against Mc5r,inactive: -0.343
5,GGCUUAAGUCUACCGAACUTT against 2810432D09Rik,inactive: -0.361
6,GGUGUUUUCUGUGUAACCATT against Tlx1,inactive: -1.52
7,GCUUGUUCGGUCCUUUGAUTT against Fbxw9,inactive: -2.98
8,GCUGCCAUUUAUCAACCUUTT against 2210008M09Rik,inactive: -0.37
9,GCAGUAUCUAUGCUCUUGATT against Hand1,inactive: 0.129
10,GCUCUGAUGUCAACCUUCCTT against 1600002K03Rik,inactive: 0.695
11,GCCAAGCUUAAGAACUUAATT against Oas3,inactive: -0.555
12,UGUUACAACUCUUUGUGGUTT against Olfr1193,inactive: -1.4
13,GGAUGUGAGUGAGACUGUCTT against Mtm1,inactive: 1.12
14,GAACUGGACAACUUUCUCCTT against Olfr1355,inactive: 0.0482
15,GACGCAGAUGGUAUUUUUUTT against Orm2,inactive: -0.266
16,GGUAGACUUCGACAUCAAGTT against Hs6st2,inactive: 1.64
17,GGGAUUUUAUCAUACAAACTT against Ppil4,inactive: -0.499
18,GCAUCUCGGAAGAUCCUGUTT against Vip,inactive: -0.34
19,UCCAGACUGUACCAUUCCATT against Mesp1,inactive: -0.673
20,GCCUCUUUGGGUUCGUUUCTT against Opn3,inactive: -0.851
21,GGUGUACCAGAAUGAGAAGTT against Akr1b3,inactive: -0.791
22,GCUAGUCAGAAGAAGUACUTT against Arpm2,inactive: -0.561
23,GGAAGGAAGAGAAUAAGCGTT against Papd4,inactive: 0.536
24,GGACUAUGACCCAUAUAGUTT against Zc3hdc8,inactive: -0.584
25,GGAAUUUAGUGUGCGGUCGTT against Oxa1l,inactive: 0.74
26,CCCAGGAAAAACCGUCAACTT against A530094I17Rik,inactive: 1.86

row,Sequence,z-score
1,GCCUUAACUAUAGUCCAGATT against Scn7a,inactive: -1.59
2,CGCUGAAAGUGAACGUAGGTT against Kcnv2,inactive: 0.713
3,GGACCAAUUGGAUCCUUUUTT against Olfr1340,inactive: -0.205
4,GGUGACCAAGAUGCUGUUUTT against Gpr66,inactive: 1.21
5,GCCAGUAUUGUGCAACAAGTT against Klrk1,inactive: 2.17
6,GGACCAGUUCUGGUUCAGATT against Fmn2,inactive: 0.168
7,GAGAAACUAUGGCUGAAAATT against Klk6,inactive: 0.52
8,GGAUAAAUUUCAAGAUGUGTT against Birc1e,inactive: -1.61
9,CCACUCUAAUGAUGUUUUUTT against 1200006F02Rik,inactive: 0.281
10,GCGGAGAGAUCAAAGCGAUTT against Iltifb,inactive: -0.616
11,GGCUUUGAUAUACCUUGAATT against Pvt1,inactive: -0.986
12,GGCUUAUGUAUGUAAACACTT against 2810426N06Rik,inactive: 1.24
13,GGACAAGAAGAAAGAAAAGTT against Tegt,inactive: -0.517
14,CCGAGUUUGCCUUCUAUCCTT against Hoxb13,inactive: 0.587
15,CGACCACACCCAAAACACUTT against Ddx26,inactive: 1.15
16,CCAAACUAUAGUGAACUUATT against Irak4,inactive: 0.608
17,GGAGGAAGUGUUUUUCUCCTT against LOC545925,inactive: -0.0218
18,GCCAUCACUGAAUUAAGAUTT against Pcdhb11,inactive: -0.427
19,GGACAAACAGCUUCAAGAUTT against Psmd2,inactive: -2.75
20,CCACAUCUCAUGUGAAACCTT against Olfr517,inactive: 0.922
21,GGACCAUACUGGAUAAGGATT against Ccl12,inactive: -1.4
22,GGAACAAACUUGAACUCUCTT against 2610019N13Rik,inactive: -2.06
23,GGUGAACAGAAUAUAUGGATT against Olfr629,inactive: 1.06
24,CCUUCACACUUAAUAGAGGTT against Ifitm3,inactive: -0.5
25,GGUGAACAGAGCUCAUAAUTT against Specc1,inactive: 0.344
26,GGAAGAAACCUCUUCGAGATT against Hmg20a,inactive: 0.655

# Quoted at random: two records from the list
row,Sequence,z-score
19,GGACAAACAGCUUCAAGAUTT against Psmd2,inactive: -2.75
9,CCACUCUAAUGAUGUUUUUTT against 1200006F02Rik,inactive: 0.281

# An excerpt of these results, with bars between the fields.
row | Sequence | z-score
12 | GCACAAAAAAGUGAUAUUGTT against Hdlbp | inactive: -0.853
13 | CUCUGGUUCCUAUUAGUAGTT against V1rd21 | inactive: -1.31
14 | GCAACUGGACAUUUAACAATT against Epgn | inactive: 0.218
